# Experimental data from patent US20260227407A1, “SYNTHETIC GLYCOPEPTIDES AND DERIVATIVES FOR THE EARLY-STAGE DETECTION OF CANCER BIOMARKERS IN MUC1-POSITIVE TUMORS” (FUNDACIÓN RIOJA SALUD, priority 2023, published 2026).
# Test system: 5E5 (anti-MUC1) antibody
# Assay: Antigen-antibody binding studies by surface plasmon resonance (SPR)
# Parameters: species or system mouse
# Details: 5E5, 20° C. and 7.5 pH
# Protocol: Surface plasmon resonance (SPR) experiments were performed with a Biacore X-100 apparatus (Biacore, GE) in HBS-EP buffer solution at 7.5 pH (10 mM Hepes, 150 mM NaCl, 3 mM EDTA, with 2% DMSO and 0.05% Tween X100) at […]. This is the running buffer. The 5E5 antibody (from Abcam) was immobilised on a CM5 sensor chip (Biacore, GE) following the standard amine coupling method.^30 Briefly, the carboxymethyl dextran surface of flow cell 2 was activated by a 7 min injection of a 1:1 ratio of a 0.4 M aqueous solution of 1-ethyl-3-(3-dimethylaminopropyl) carbodiimide (EDC) and 0.1 M sulfo-N-hydroxysuccinimide. As such, the antibody was bound to the surface using various dilutions in 10 mM sodium acetate, 4.0. pH during a 7 min injection. […] The flow cell 1 was used as a reference and treated as the flow cell 2 (amine coupling method) without protein. Before use, 50 mM stock solutions of peptide ligand were diluted to the final concentration in the running buffer. Therefore, a series of different compounds were injected into the sensor chip at a flow rate of 30 μl/min for a period of 1 min followed by a dissociation period of 1 min. No regeneration was required. FIGS. 2A and 2B show the response-concentration curves obtained for the binding of glycopeptide 21 and 24, respectively, towards the 5E5 (anti-MUC1) antibody at 20° C. in SPR experiments. […]
row,Substance,Rmax
1,"GGGGPAPGST(GalNAc)APPA (GalNAc glycosylation; APPA extension) [Glycopeptide 21, reference compound]",23 RU
2,GGGGPAPGST(GalNCOEt)APPA (GalNCOEt glycosylation; APPA extension) [Glycopeptide 24],23 RU
